Results are given in words; binding and its absence hold for the method and conditions named. Binding calls can cover weak binding; strength is not graded here. For part of these data: Binding seen in cells or lysates may run through a third protein.
Tests used:
[1] = biological target: Trypanosoma brucei RESC1 (residues 22-473, without mitochondrial targeting sequence) (Trypanosoma brucei) (UniProt Q57XL7); experiment: mass photometry; Refeyn OneMP; RESC1-RESC2 at a final concentration of 100 nM; co-expressed, co-purified complex; both purified
[2] = biological target: Trypanosoma brucei RESC1 (residues 22-473, without mitochondrial targeting sequence) (Trypanosoma brucei) (UniProt Q57XL7); experiment: SEC-MALS; Superdex 200 Increase 10/300 GL; 20 mM HEPES pH 7.5, 50 mM NaCl, 2 mM MgCl2, 1 mM DTT; 2 mg/ml, 50 ul injected; co-expressed, co-purified complex; both purified
[3] = biological target: Trypanosoma brucei RESC1 (residues 22-473, without mitochondrial targeting sequence) (Trypanosoma brucei) (UniProt Q57XL7); experiment: cryo-EM structure; apo RESC1-RESC2 heterodimer, peak fractions of Superdex 200 Increase 3.2/300 in 20 mM HEPES pH 7.5, 50 mM NaCl, 2 mM MgCl2, 0.5 mM TCEP; 3.4 A map; a gRNA-bound map at 4.7 A was also obtained; both purified

Sequences of proteins named here, by UniProt entry; tags and fusion partners are left off. A change or cut given only in a name is not applied to a line headed by its entry.
UniProt Q586X1: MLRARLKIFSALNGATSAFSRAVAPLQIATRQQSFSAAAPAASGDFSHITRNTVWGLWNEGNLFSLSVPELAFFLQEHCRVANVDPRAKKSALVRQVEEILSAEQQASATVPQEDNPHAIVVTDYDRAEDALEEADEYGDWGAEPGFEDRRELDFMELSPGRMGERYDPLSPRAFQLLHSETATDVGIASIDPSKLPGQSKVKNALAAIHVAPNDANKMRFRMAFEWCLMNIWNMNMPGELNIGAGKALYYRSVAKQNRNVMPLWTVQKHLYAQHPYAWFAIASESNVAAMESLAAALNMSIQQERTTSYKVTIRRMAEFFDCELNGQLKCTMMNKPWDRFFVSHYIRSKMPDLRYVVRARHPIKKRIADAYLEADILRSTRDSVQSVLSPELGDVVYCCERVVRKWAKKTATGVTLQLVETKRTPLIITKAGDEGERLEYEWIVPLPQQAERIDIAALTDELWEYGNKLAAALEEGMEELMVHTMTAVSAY

Measured: binding

Trypanosoma brucei RESC2 (residues 33-492, without mitochondrial targeting sequence) (from UniProt Q586X1)
binds: all assays above

From paper PMC10201420, “Structural basis for guide RNA selection by the RESC1–RESC2 complex”
